Laboratory results taken from publication doi:10.1101/699132 (bioRxiv, 2020).
Like-named read-outs stand apart in the source and are kept apart here. No constants are given. Whether binding was seen depends on the method and setting. Binding seen in cells or lysates may run through a third protein. Binding can be weak; no strength is given. For some of these results: Where a sequence is shown, tags or fusion partners need not be part of it. Each block holds one molecule with its values, some of them ahead of it.

Columns and labels:
Assay in all cases: co-IP
[1] = molecular target: T1, Flag-tagged human PRDX4 (human) (UniProt Q13162)
T1 sequence: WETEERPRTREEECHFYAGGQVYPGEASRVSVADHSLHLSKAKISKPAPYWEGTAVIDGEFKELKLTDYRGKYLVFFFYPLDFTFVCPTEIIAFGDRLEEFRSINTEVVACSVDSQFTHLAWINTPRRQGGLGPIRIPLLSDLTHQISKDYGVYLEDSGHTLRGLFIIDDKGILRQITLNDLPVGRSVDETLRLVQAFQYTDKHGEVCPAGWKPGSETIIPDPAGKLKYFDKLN

[2] = molecular target: T1, Flag-tagged human PRDX4 (human); remark: listed apart in the source
[3] = molecular target: MYC-tagged wild-type human proinsulin (human)
[4] = molecular target: human proinsulin (human (endogenous in human islets))

binding [1]: binds | binding [2]: binds
Molecule: MYC-tagged wild-type human proinsulin

binding [1]: binds
Molecule: MYC-tagged Akita mutant human proinsulin

Further lines, the molecule ahead of its results:

B1: Flag-tagged human PRDX4 (enzyme, UniProt Q13162 38-271)
chain: T1 sequence
binding [3]: binds

B2: ERDJ5 (protein, UniProt Q8IXB1 33-793)
chain: DQDFYSLLGVSKTASSREIRQAFKKLALKLHPDKNPNNPNAHGDFLKINRAYEVLKDEDLRKKYDKYGEKGLEDNQGGQYESWNYYRYDFGIYDDDPEIITLERREFDAAVNSGELWFVNFYSPGCSHCHDLAPTWRDFAKEVDGLLRIGAVNCGDDRMLCRMKGVNSYPSLFIFRSGMAPVKYHGDRSKESLVSFAMQHVRSTVTELWTGNFVNSIQTAFAAGIGWLITFCSKGGDCLTSQTRLRLSGMLDGLVNVGWMDCATQDNLCKSLDITTSTTAYFPPGATLNNKEKNSILFLNSLDAKEIYLEVIHNLPDFELLSANTLEDRLAHHRWLLFFHFGKNENSNDPELKKLKTLLKNDHIQVGRFDCSSAPDICSNLYVFQPSLAVFKGQGTKEYEIHHGKKILYDILAFAKESVNSHVTTLGPQNFPANDKEPWLVDFFAPWCPPCRALLPELRRASNLLYGQLKFGTLDCTVHEGLCNMYNIQAYPTTVVFNQSNIHEYEGHHSAEQILEFIEDLMNPSVVSLTPTTFNELVTQRKHNEVWMVDFYSPWCHPCQVLMPEWKRMARTLTGLINVGSIDCQQYHSFCAQENVQRYPEIRFFPPKSNKAYHYHSYNGWNRDAYSLRIWGLGFLPQVSTDLTPQTFSEKVLQGKNHWVIDFYAPWCGPCQNFAPEFELLARMIKGKVKAGKVDCQAYAQTCQKAGIRAYPTVKFYFYERAKRNFQEEQINTRDAKAIAALISEKLETLRNQGKRNKDEL
binding [4]: binds

B3: Human QSOX1-HA (enzyme, UniProt O00391 30-747)
chain: APRSALYSPSDPLTLLQADTVRGAVLGSRSAWAVEFFASWCGHCIAFAPTWKALAEDVKAWRPALYLAALDCAEETNSAVCRDFNIPGFPTVRFFKAFTKNGSGAVFPVAGADVQTLRERLIDALESHHDTWPPACPPLEPAKLEEIDGFFARNNEEYLALIFEKGGSYLGREVALDLSQHKGVAVRRVLNTEANVVRKFGVTDFPSCYLLFRNGSVSRVPVLMESRSFYTAYLQRLSGLTREAAQTTVAPTTANKIAPTVWKLADRSKIYMADLESALHYILRIEVGRFPVLEGQRLVALKKFVAVLAKYFPGRPLVQNFLHSVNEWLKRQKRNKIPYSFFKTALDDRKEGAVLAKKVNWIGCQGSEPHFRGFPCSLWVLFHFLTVQAARQNVDHSQEAAKAKEVLPAIRGYVHYFFGCRDCASHFEQMAAASMHRVGSPNAAVLWLWSSHNRVNARLAGAPSEDPQFPKVQWPPRELCSACHNERLDVPVWDVEATLNFLKAHFSPSNIILDFPAAGSAARRDVQNVAAAPELAMGALELESRNSTLDPGKPEMMKSPTNTTPHVPAEGPEASRPPKLHPGLRAAPGQEPPEHMAELQRNEQEQPLGQWHLSKRDTGAALLAESRAEKNRLWGPLEVRRVGRSSKQLVDIPEGQLEARAGRGRGQWLQVLGGGFSYLDISLCVGLYSLSFMGLLAMYTYFQAKIRALKGHAGHPAA
binding [3]: binds

B4: ERGIC1 (protein, UniProt Q969X5 1-290)
chain: MPFDFRRFDIYRKVPKDLTQPTYTGAIISICCCLFILFLFLSELTGFITTEVVNELYVDDPDKDSGGKIDVSLNISLPNLHCELVGLDIQDEMGRHEVGHIDNSMKIPLNNGAGCRFEGQFSINKVPGNFHVSTHSATAQPQNPDMTHVIHKLSFGDTLQVQNIHGAFNALGGADRLTSNPLASHDYILKIVPTVYEDKSGKQRYSYQYTVANKEYVAYSHTGRIIPAIWFRYDLSPITVKYTERRQPLYRFITTICAIIGGTFTVAGILDSCIFTASEAWKKIQLGKMH
binding [4]: binds
